Laboratory results published in paper PMC4512687.
Results are given in words; binding and its absence hold for the method and conditions named. Binding seen in cells or lysates may run through a third protein. Some binding calls cover weakened binding; strength is not graded here.

Protein sequences, listed by entry. Tags and fused reporters are not part of them.
UniProt O35625: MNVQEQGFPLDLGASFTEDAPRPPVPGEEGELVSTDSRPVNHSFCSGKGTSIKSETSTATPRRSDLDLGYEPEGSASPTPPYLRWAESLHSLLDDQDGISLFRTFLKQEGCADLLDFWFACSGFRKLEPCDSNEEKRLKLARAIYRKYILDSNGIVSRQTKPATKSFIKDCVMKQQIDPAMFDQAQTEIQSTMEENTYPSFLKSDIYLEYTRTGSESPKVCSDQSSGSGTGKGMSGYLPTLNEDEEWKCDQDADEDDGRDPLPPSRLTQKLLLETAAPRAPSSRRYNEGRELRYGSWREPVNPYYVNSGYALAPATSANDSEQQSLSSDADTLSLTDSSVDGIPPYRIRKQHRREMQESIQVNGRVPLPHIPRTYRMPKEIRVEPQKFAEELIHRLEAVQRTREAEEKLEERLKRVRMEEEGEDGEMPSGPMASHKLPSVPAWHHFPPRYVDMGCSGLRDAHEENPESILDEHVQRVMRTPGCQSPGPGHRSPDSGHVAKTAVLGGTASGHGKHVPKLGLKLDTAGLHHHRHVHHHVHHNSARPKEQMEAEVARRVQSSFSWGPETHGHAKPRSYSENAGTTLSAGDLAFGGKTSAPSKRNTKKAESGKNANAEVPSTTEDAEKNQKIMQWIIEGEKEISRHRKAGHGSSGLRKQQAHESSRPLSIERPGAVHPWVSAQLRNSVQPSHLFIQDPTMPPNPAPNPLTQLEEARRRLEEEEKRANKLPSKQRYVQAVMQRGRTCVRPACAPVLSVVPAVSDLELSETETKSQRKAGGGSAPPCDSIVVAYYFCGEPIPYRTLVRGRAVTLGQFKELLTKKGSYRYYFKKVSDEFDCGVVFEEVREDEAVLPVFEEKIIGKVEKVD
UniProt P11798: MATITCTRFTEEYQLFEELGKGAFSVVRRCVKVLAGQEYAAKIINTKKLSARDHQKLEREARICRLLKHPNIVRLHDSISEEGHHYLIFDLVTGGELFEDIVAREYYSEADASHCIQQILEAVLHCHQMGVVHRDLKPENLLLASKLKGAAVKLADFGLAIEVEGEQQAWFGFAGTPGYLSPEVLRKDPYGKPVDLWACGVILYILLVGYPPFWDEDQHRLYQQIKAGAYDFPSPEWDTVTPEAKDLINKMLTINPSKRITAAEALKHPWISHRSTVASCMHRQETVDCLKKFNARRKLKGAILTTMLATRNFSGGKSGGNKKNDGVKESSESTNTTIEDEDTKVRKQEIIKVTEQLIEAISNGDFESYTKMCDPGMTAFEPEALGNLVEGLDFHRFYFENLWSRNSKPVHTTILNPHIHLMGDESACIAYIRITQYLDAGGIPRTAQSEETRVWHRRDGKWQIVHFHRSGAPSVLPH
UniProt P28652: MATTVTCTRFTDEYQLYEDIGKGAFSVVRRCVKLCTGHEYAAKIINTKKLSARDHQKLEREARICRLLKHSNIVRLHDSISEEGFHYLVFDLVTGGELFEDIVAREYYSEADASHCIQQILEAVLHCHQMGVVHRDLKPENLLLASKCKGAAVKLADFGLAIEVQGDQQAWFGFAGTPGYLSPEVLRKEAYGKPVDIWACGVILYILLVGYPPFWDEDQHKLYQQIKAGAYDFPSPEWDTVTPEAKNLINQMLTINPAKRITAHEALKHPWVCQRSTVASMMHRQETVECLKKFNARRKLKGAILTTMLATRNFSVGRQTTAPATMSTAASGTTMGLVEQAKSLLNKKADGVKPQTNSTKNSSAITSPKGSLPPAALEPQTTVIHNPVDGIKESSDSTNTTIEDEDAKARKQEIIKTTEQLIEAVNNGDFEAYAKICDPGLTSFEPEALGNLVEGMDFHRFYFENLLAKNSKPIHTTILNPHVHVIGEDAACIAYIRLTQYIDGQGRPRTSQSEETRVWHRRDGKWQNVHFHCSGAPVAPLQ

Key:
Axin = Axin (UniProt O35625); test: co-IP; co-immunoprecipitation assay in HEK293T cells
[1] = target: Axin (mouse (endogenous in mouse brain)) (UniProt O35625); test: co-IP; co-immunoprecipitation with Axin from the mouse brain synaptosomal fraction
[2] = target: Axin (mouse (endogenous in mouse brain)) (UniProt O35625); test: co-IP; mouse brain P1 (pelleted nuclear fraction) and S2 (cytosol and light membranes) fractions; data not shown

| Substance | binding (Axin) | binding [1] | binding [2] |
| --- | --- | --- | --- |
| CaMKIIα (from UniProt P11798 1-478) | binds |  |  |
| CaMKIIβ (from UniProt P28652 1-542) | binds |  |  |
| Calcium/calmodulin-dependent protein kinase type II subunit alpha (from UniProt P11798 1-478) |  | binds | binds |
